The target in test [1] is TALL-1, membrane form on transfected COS 7 cells (chimeric ligand: TNF-alpha intracellular and transmembrane regions, TALL-1 extracellular region aa 75-285) (human) (UniProt P01375). The test can be described thus: Fc fusion on ligand-transfected COS 7 cells, Cy3 staining.
Test [2] concerns the target T1, DcR3-IgG (IgG1-Fc fusion of the ECD of DcR3) (human) (UniProt O95407).
T1 sequence (looked up): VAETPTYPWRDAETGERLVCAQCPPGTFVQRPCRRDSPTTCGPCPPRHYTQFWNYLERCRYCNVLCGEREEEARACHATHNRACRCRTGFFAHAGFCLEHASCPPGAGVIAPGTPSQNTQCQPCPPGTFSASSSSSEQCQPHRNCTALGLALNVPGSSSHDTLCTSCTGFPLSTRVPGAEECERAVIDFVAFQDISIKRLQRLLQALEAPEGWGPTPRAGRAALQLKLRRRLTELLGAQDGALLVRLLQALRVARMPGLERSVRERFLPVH
The test can be described thus: co-immunoprecipitation and Western blot. A general note: In western blotting, separated proteins are transferred to a membrane and probed.

Sequences of proteins named here, by UniProt entry; tags and fusion partners are left off. A change or cut given only in a name is not applied to a line headed by its entry. Residues count along the entry.
UniProt Q02223: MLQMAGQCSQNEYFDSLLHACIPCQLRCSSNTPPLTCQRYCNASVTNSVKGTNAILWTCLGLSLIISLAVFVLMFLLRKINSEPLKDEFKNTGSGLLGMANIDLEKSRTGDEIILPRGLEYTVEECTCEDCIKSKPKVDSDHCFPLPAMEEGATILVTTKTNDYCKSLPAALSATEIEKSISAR
UniProt O43557, residues 82-240: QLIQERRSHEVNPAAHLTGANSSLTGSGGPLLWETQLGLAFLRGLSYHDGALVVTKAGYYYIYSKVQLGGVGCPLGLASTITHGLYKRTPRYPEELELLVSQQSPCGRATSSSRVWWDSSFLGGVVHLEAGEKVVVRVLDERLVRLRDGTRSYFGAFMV

Results are given in words; binding and its absence hold for the method and conditions named. For some assays here: Binding seen in cells or lysates may run through a third protein. Some entries that bind do so weakly or less than the wild type. For some assays here: Where a sequence is shown, tags or fusion partners need not be part of it.

On to “BCMA-ECD immunoadhesin (amino acids 5-51 of human BCMA fused to human IgG1 Fc) (from UniProt Q02223 5-51) (Fc fusion)”, for which the binding entry in test [1] was “binds”.

For “Flag-LIGHT (from UniProt O43557 82-240) (ligand)”, the binding result in test [2] was “binds”.

For the origin of these results see patent publication US20060073146A1.
